One molecule from patent publication US20030108554A1 (published 2003) can be followed below.

No constants are given. Whether binding was seen depends on the method and setting. Binding calls can cover weak binding; strength is not graded here.

For the assay, the target named is pol κ76. Description: yeast two-hybrid.

B1: I-20 (other)
chain: RDEVIGILKAEKMDLALLEAQYGFVTPKKVLEALQRDAFQAKSTPWQEDIYEKPMNELDKVVEKHKESYRRILGQLLVAEKSRRQTILELEEEKRKHKEYMEKSDEFICLLEQECERLKKLIDQEIKSQEEKEQEKEKRVTTLKEELTKLKSFALMVVDEQQRLTAQLTLQRQKIQELTTNAKETHTKLALAEARVQEEEQKATRLEKELQTQTTKFHQDQDTIMAKLTNEDSQNRQLQQKLAALSRQIDELEETNRSLRKAEEE
notes: Tested as GAL4 domain fusion in yeast two-hybrid and three-hybrid; fusion parts are not written as pieces; also called 265 residue polypeptide I-20
In the case of B1, the binding result is listed as “binds”.
